Test [1] concerns the target Dcc, endogenous in commissural neurons (not stated (endogenous in rodent commissural neurons, rat or mouse)) (UniProt P70211). Put plainly: proximity ligation.
Test [2] deals with FLAG-tagged WAVE1 (pcDNA3-Human WAVE1-Flag) (human) (UniProt Q92558). Nature of the test: co-IP.

Protein sequences, listed by entry. Tags and fused reporters are not part of them. Lines headed by an entry give the natural chain unless they say otherwise; changes in a name come on top. Residues count along the entry.
UniProt P70211, 26-1447: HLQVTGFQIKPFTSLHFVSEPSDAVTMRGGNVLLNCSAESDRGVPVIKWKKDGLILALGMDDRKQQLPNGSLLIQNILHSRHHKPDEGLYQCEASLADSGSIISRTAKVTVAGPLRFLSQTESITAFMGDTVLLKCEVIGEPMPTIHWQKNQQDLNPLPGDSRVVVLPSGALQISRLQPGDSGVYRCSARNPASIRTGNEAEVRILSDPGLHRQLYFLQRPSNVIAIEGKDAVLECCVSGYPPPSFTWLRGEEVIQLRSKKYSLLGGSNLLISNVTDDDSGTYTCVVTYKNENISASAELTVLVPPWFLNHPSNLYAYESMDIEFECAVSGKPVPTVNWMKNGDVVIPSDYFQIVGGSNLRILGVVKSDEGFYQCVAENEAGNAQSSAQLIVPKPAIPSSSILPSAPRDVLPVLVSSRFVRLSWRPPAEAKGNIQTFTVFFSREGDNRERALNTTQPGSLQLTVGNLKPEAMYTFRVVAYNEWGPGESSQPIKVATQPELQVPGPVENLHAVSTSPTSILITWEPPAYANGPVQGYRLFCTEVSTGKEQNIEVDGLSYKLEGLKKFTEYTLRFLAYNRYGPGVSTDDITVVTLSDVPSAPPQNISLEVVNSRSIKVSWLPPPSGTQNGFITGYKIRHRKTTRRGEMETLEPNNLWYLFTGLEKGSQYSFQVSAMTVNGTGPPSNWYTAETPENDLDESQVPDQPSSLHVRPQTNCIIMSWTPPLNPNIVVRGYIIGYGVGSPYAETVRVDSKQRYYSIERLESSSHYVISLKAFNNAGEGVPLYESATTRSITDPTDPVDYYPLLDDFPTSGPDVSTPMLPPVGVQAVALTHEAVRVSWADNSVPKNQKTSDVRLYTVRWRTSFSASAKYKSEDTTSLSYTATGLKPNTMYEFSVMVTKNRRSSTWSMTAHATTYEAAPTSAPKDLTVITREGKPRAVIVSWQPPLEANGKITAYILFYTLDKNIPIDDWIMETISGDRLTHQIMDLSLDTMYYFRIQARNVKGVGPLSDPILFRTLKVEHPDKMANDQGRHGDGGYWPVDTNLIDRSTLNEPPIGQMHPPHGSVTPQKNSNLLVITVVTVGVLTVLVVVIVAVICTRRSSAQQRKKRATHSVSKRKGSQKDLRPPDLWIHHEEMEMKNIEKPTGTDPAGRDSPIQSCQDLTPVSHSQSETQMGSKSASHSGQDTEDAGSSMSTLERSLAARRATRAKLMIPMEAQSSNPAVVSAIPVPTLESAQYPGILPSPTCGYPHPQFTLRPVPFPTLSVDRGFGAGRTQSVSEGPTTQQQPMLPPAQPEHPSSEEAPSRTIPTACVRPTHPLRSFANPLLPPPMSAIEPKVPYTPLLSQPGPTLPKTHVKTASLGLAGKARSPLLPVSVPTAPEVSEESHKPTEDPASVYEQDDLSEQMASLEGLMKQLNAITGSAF
UniProt Q92558, whole entry: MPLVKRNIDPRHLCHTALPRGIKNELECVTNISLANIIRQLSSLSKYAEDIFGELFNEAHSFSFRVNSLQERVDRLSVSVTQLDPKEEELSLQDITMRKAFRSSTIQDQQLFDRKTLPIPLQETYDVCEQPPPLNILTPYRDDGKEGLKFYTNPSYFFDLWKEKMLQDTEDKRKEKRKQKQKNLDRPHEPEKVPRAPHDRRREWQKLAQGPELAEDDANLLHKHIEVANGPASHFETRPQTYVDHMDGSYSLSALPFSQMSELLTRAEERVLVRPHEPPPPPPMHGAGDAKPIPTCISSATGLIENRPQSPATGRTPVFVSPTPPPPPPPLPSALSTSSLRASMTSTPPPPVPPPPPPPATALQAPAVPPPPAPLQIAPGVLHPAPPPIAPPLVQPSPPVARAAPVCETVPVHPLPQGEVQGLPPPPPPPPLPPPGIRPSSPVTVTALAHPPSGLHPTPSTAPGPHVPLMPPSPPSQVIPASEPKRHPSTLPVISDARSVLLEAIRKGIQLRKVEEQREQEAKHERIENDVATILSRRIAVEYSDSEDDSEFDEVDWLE
UniProt Q5SQX6, whole entry: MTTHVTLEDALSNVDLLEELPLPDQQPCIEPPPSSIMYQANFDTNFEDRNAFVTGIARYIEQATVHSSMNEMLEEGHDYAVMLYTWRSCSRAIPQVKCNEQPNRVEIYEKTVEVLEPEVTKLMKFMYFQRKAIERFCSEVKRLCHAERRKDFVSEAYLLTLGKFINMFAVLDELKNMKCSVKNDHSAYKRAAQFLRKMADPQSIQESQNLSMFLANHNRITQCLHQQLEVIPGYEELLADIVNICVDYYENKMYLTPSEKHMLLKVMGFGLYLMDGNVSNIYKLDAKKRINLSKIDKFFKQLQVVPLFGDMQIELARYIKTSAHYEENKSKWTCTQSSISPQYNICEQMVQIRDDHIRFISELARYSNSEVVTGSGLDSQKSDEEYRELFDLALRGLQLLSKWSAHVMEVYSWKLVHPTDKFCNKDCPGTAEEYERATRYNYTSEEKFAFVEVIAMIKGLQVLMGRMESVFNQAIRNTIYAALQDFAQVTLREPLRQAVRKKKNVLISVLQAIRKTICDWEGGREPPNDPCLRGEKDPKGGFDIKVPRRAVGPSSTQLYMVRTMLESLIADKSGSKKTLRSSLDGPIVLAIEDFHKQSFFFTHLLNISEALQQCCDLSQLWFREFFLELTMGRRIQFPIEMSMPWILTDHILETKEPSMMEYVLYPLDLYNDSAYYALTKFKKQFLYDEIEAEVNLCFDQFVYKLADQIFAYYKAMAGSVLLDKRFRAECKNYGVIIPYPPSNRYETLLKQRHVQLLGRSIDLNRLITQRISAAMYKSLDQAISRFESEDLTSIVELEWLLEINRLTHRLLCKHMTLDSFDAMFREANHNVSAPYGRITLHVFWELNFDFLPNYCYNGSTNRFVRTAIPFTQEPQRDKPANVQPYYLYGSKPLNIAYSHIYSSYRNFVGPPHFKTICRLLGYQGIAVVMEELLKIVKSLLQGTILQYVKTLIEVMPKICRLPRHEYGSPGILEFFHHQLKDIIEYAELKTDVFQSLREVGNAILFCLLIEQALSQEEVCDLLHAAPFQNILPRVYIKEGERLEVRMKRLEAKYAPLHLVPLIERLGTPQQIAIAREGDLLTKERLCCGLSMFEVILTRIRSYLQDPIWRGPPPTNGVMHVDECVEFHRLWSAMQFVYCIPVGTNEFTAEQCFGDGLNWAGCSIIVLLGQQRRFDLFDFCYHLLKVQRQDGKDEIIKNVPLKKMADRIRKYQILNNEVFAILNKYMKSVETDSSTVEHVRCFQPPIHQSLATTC
UniProt P43146, whole entry, looked up, stated change not applied: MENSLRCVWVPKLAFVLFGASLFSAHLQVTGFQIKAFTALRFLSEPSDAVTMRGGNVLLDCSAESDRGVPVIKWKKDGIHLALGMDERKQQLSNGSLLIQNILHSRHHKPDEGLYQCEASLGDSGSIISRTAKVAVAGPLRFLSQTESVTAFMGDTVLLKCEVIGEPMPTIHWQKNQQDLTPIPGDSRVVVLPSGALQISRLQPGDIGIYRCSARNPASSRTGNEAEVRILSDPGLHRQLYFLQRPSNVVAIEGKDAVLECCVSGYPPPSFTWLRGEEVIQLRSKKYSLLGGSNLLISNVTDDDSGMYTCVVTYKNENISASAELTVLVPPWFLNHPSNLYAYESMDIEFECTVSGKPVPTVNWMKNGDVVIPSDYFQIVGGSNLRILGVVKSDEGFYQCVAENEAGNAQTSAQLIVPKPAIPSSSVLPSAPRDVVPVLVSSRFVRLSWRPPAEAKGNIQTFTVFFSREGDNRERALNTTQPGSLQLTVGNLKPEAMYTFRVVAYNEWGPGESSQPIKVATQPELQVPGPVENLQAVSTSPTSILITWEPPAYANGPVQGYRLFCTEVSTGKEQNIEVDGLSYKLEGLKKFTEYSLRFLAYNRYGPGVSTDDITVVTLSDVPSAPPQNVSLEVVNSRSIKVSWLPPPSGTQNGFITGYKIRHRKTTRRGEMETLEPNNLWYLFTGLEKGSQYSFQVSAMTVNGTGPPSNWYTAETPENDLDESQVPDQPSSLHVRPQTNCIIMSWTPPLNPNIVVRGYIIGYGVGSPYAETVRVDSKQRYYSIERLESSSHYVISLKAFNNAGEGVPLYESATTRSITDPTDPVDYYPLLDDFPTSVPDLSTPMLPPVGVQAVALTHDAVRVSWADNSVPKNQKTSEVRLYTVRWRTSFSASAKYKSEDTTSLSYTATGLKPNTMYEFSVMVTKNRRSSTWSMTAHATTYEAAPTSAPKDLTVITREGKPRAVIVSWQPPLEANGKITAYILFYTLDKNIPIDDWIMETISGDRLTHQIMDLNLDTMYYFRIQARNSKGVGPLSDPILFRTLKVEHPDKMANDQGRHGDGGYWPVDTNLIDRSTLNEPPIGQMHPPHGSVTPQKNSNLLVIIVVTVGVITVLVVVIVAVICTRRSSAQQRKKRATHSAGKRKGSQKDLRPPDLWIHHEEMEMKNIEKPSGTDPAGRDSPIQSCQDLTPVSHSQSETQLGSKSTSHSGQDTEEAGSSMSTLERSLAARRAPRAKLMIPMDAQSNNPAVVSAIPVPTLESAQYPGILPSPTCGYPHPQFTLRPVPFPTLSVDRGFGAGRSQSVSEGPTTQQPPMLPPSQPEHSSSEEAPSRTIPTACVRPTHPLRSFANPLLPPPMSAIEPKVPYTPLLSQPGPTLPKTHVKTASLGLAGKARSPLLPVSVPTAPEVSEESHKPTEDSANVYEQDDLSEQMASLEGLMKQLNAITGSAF
UniProt P43146, 26-1447: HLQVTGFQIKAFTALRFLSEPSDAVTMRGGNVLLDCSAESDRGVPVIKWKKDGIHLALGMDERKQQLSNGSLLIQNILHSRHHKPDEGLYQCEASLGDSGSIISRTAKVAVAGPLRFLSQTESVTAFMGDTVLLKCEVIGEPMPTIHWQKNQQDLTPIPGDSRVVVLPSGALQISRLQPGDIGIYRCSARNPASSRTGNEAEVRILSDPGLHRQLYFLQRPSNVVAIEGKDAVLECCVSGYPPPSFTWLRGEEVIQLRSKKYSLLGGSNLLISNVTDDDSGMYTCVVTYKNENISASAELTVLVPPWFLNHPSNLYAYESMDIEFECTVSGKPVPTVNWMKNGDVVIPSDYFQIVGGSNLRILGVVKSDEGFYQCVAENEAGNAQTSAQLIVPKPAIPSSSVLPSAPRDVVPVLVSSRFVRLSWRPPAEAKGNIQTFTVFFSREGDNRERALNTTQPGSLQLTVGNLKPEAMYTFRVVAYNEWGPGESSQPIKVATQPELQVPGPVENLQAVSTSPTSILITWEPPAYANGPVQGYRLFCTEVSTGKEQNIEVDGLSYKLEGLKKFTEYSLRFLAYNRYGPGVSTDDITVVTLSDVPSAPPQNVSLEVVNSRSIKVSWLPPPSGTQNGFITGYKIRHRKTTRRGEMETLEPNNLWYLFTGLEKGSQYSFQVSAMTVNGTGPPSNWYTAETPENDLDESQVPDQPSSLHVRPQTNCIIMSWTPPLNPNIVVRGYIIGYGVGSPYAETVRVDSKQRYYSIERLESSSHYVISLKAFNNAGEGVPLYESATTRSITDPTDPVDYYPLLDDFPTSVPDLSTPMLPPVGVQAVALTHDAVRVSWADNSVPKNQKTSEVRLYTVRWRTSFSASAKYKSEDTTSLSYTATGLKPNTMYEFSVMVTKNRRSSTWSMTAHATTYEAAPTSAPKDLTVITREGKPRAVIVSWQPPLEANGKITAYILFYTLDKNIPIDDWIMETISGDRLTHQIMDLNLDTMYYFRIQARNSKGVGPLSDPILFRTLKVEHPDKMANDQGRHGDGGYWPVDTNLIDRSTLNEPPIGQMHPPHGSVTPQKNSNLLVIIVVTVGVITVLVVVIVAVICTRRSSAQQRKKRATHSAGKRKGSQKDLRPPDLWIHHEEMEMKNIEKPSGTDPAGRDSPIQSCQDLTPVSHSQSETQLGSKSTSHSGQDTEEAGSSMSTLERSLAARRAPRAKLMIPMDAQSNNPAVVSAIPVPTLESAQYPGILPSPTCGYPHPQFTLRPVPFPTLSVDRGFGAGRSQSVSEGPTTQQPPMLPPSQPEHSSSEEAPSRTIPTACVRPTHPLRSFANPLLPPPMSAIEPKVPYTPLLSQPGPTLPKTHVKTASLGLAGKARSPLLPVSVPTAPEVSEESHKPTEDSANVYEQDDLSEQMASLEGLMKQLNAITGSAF

The source of these data is article doi:10.1101/2022.10.13.511954 (bioRxiv, 2022).

These are yes or no findings as the source states them, for the method shown. In cells and extracts the contact can be indirect. Some results given as binding are weak or reduced against the parent protein; the word gives no strength.

In the case of “Cyfip2 subunit of the WRC, endogenous in commissural neurons (from UniProt Q5SQX6 1-1253)”, in test [1], the binding entry is recorded as “binds”. In the case of “DCC^R1343H (pcDNA3.1-DCC^R1343H-HA) (from UniProt P43146 26-1447) (receptor)”, the binding entry in test [2] is listed as “binds”. For “DCC^ΔWIRS (pcDNA3-DCC^ΔWIRS-HA) (from UniProt P43146 26-1447) (receptor)”, the binding result in test [2] was “binds”. Consider “HA-tagged DCC^WT (pcDNA3.1-DCC^WT-HA) (from UniProt P43146 26-1447) (receptor)”, for which the binding entry in test [2] is on record as “binds”.
